Results are given in words; binding and its absence hold for the method and conditions named. In cells and extracts the contact can be indirect. Some entries that bind do so weakly or less than the wild type.
Assays:
[1] = molecular target: T1, sphingosine kinase 2 (SPHK2), endogenous in HeLa cells (human (endogenous in HeLa)) (UniProt Q9NRA0); experiment: co-IP; endogenous proteins; HeLa cytoplasmic and nuclear extracts, cells with or without TCDF (0.1 uM, 30 min) or ICZ; antibody to AHR, SPHK2 or ARNT on Protein G magnetic beads, 600-800 ug protein, 90 min at 4 C, washed with TBS; western blot
T1 sequence: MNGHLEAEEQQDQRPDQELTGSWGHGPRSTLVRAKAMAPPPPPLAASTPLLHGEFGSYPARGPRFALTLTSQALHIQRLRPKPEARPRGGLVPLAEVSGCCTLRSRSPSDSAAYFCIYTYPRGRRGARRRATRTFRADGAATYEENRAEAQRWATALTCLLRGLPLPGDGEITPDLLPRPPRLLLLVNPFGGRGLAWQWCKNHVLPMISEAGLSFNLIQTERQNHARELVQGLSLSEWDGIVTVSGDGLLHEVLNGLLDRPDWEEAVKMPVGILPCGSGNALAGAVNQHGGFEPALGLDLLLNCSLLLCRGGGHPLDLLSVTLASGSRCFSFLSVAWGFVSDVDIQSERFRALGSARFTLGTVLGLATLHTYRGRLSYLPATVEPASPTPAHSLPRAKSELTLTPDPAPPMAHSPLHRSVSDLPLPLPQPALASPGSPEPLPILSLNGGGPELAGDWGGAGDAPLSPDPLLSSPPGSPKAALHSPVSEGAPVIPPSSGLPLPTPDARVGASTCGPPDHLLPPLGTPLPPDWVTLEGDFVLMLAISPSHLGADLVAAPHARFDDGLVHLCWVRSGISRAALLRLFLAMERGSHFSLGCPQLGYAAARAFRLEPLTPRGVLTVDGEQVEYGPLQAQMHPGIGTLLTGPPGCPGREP

Amino acid sequences for entries named in this document (tags omitted). Residues count along the entry.
UniProt P27540: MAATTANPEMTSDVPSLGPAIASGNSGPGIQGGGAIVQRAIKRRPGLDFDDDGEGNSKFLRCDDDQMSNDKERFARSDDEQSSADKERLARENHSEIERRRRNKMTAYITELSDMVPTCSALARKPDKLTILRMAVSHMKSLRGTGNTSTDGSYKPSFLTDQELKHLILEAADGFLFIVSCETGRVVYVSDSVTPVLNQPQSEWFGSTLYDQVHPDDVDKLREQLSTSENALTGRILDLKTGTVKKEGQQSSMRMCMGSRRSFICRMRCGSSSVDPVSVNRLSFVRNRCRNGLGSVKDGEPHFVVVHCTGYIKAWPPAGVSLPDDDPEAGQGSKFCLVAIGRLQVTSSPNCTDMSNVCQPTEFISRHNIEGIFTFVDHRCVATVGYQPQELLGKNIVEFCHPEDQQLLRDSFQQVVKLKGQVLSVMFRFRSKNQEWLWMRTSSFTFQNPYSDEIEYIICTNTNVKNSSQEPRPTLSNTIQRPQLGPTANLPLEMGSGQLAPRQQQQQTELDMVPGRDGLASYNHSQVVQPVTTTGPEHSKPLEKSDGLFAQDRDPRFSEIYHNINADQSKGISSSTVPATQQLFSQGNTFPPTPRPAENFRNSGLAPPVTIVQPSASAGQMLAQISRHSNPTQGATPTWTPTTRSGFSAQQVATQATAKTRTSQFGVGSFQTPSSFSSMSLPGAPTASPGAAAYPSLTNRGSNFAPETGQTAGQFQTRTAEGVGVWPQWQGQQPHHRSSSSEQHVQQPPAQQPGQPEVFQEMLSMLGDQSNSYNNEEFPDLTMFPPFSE
UniProt P35869, residues 11-848: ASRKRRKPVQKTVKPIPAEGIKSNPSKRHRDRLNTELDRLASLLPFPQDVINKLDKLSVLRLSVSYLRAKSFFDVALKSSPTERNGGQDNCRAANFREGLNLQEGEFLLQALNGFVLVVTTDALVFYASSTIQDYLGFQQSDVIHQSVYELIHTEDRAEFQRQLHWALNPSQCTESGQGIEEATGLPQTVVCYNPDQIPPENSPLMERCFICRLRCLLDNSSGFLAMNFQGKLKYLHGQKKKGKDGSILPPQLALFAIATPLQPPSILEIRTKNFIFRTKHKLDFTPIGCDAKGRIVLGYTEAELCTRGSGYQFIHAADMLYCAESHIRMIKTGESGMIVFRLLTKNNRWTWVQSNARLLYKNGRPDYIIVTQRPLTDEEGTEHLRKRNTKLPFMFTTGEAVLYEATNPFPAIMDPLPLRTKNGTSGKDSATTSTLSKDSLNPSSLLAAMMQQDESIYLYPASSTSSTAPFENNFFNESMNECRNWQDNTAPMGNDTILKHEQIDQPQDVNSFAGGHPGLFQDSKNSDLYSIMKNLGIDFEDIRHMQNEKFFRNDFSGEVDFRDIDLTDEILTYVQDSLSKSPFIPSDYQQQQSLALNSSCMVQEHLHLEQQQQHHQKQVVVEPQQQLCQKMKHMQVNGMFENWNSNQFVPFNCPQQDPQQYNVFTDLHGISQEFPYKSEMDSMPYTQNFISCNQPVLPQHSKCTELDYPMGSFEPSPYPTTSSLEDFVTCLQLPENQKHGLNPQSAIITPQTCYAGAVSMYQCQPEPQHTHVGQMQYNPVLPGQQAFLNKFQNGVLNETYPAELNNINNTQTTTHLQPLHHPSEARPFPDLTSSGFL
UniProt Q9NYA1: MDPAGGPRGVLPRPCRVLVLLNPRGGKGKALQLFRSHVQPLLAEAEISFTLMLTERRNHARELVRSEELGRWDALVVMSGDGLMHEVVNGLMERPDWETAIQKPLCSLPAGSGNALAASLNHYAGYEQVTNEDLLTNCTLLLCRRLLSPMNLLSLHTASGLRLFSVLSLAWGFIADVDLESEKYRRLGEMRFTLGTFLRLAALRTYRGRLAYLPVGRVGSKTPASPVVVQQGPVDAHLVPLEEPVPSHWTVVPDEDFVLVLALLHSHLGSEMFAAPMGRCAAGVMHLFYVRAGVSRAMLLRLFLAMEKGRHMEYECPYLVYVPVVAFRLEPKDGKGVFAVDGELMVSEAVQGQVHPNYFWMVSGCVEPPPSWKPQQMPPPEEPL

[2] = molecular target: aryl hydrocarbon receptor nuclear translocator (ARNT), endogenous in HeLa cells (human (endogenous in HeLa)) (UniProt P27540); experiment: as above
[3] = molecular target: aryl hydrocarbon receptor (AHR), endogenous in HeLa cells (human (endogenous in HeLa)) (UniProt P35869); experiment: co-IP; IP assays that compare SPHK2 and SPHK1 with AHR (Figure S3A,B); cells and precipitating antibody not told in the text shown

| Substance | binding [1] | binding [2] | binding [3] |
| --- | --- | --- | --- |
| aryl hydrocarbon receptor (AHR), endogenous in HeLa cells (from UniProt P35869 11-848) | binds | binds | – |
| aryl hydrocarbon receptor nuclear translocator (ARNT), endogenous in HeLa cells (from UniProt P27540 1-789) | binds | – | – |
| sphingosine kinase 1 (SPHK1) (from UniProt Q9NYA1 1-384) (enzyme) | – | – | binds |
